# According to patent US10907134B2, “Mutated genes for the catalytic protein of oplophorus luciferase and use thereof” (JNC CORPORATION, priority 2013, dated 2021):
# Positions count from the first letter of the chain named. Names and notes keep the numbering of the source. Some entries repeat one wording, which the source may state once for all of them.
# B1: KAZ-V44I-A54I: KAZ mutant with two amino acid substitutions V44I and A54I, SEQ ID NO: 10 (protein)
# chain: FTLADFVGDWQQTAGYNQDQVLEQGGLSSLFQALGVSVTPIQKIVLSGENGLKIDIHVIIPYEGLSGFQMGLIEMIFKVVYPVDDHHFKIILHYGTLVIDGVTPNMIDYFGRPYPGIAVFDGKQITVTGTLWNGNKIYDERLINPDGSLLFRVTINGVTGWRLCENILA
# B2: KAZ-Y138I: KAZ with single amino acid substitution Y138I, SEQ ID NO: 8 (protein)
# chain: B1 chain with I44V, I54A, Y138I
# B3: KAZ-A54I: KAZ with single amino acid substitution A54I, SEQ ID NO: 6 (protein)
# chain: B1 chain with I44V
# B4: KAZ: wild 19 kDa catalytic protein of Oplophorus luciferase (19kOLase), amino acid sequence SEQ ID NO: 2 (protein, listed as Oplophorus gracilirostris)
# chain: B1 chain with I44V, I54A
# B5: KAZ-V44I-Y138I: KAZ mutant with two amino acid substitutions V44I and Y138I, SEQ ID NO: 12 (protein)
# chain: B1 chain with I54A, Y138I
# B6: KAZ-V44I: KAZ with single amino acid substitution V44I, SEQ ID NO: 4 (protein)
# chain: B1 chain with I54A
# B7: KAZ-A54I-Y138I: KAZ mutant with two amino acid substitutions A54I and Y138I, SEQ ID NO: 14 (protein)
# chain: B1 chain with I44V, Y138I
# B8: KAZ-V44I-A54I-Y138I: KAZ mutant with three amino acid substitutions V44I, A54I and Y138I, SEQ ID NO: 16 (protein)
# chain: B1 chain with Y138I
# System: CHO-K1 cells
# Experiment: Luminescence activity of KAZ mutants expressed in animal culture cells without secretional signal peptide sequence
# Format: cell-based, Chinese hamster
# Conditions: Table 12; pcDNA3- vectors without secretion signal; CHO-K1
# Procedure: Chinese hamster ovary cell line CHO-K1 was cultured in Ham's F-12 medium (manufactured by Wako Pure Chemical Industries, Ltd.) supplemented with 10% (v/v) fetal bovine serum (manufactured by Biowest Inc.). The CHO-K1 cells were plated in a 6-well plate in 1×10^5 cells/well/2 mL medium (n=2) and cultured in an incubator at 37° C. in 5% (v/v) CO2. After 24 hours, the purified recombinant plasmid was transfected to CHO-K1 cells using a FuGene HD transfection kit (manufactured by Promega Corp.), which was provided for subsequent experiment. Specifically, 1 μg of the recombinant plasmid pGL4.13 [Luc2/sv40], 0.1 μg of the internal standard vector and 3 μL of FuGene HD were added to 100 μL of the medium, which was allowed to stand at room temperature for 15 minutes. Subsequently, 100 μL of the DNA-FuGene complex was added to the cells in the 6 wells. After incubation for 48 hours, the culture medium was collected. On the other hand, the KAZ mutants expressed in the cells were washed 3 times with 3 mL of 1×PBS, then suspended in 1 mL of 1×PBS and disrupted on ice by ultrasonication, which was used as enzyme solutions of the cell-extracts of KAZ mutants.
# A luminescence reaction was started by adding 5 μL of the culture media and cell extracts obtained in EXAMPLE 10 to 100 μL of 30 mM Tris-HCl (pH 7.6)-10 mM EDTA (manufactured by Wako Pure Chemical Industries, Ltd.) containing 0.5 μg of coelenterazine (manufactured by INC Corp.). The luminescence activity was determined using a luminometer (manufactured by Atto Inc.: AB2200) for 60 seconds, and the maximum intensity of luminescence (Imax) was defined as a percentage.
# The gene fragments of the KAZ mutants with two amino acid substitutions and three amino acid substitutions and nanoKAZ containing the Kozak sequence were digested with restriction enzymes Asp718 and XbaI, and inserted into the Asp718-XbaI site of pcDNA3 vector (manufactured by Invitrogen Inc.) to construct the vectors of pcDNA3-KAZ-V44I, pcDNA3-KAZ-A54I, pcDNA3-KAZ-Y138I, pcDNA3-KAZ-V44I-A54I, pcDNA3-KAZ-V44I-Y138I, pcDNA3-KAZ-A54I-Y138I and pcDNA3-KAZ-V44I-A54I-Y138I.
# The culture media of the KAZ mutants with two amino acid substitutions and KAZ mutants with three amino acid substitutions and the enzyme solutions of cell-extracts of KAZ mutants were obtained in the same manner as EXAMPLE 10.
# Luminescence activities of the resulting enzyme solutions and enzyme solutions of the cell-extracts of KAZ mutants were determined in the same manner as EXAMPLE 11.
row,Molecule,Rate of Secretion (Medium/Cell Extracts)
1,B1,0.0022
2,B2,0.0047
3,B3,0.0045
4,B4,0.03
5,B5,0.0026
6,B6,0.016
7,B7,0.0023
8,B8,0.0014

# Same assay, conditions: vectors without a secretion signal; animal culture cells
row,Molecule,Secretion from the cells
1,B1,not secreted from animal culture cells
2,B5,not secreted from animal culture cells
3,B7,not secreted from animal culture cells
4,B8,not secreted from animal culture cells
